For 27 compounds, T/C and survivor count results are on record in PubChem BioAssay AID330 (DTP/NCI, 2004).

The list does not hold the whole screen: it gathers tests that were run many times, whatever their T/C, doses with no T/C, and many T/C values between a quarter and a half above the control. Other doses and runs of a compound stand elsewhere. T/C: endpoint of the treated group in % of that of the vehicle group. Some doses have a count of surviving animals in place of a T/C: the source holds a T/C of zero for them, seemingly a mark for toxic or unscored doses. Some survivor counts are full or nearly so, which does not show that the dose was tolerated: survival well below the control is almost never listed, so the zero probably covers shortened survival too. Survivors were counted at the toxicity check, usually on the fifth day, unless a day is given; later deaths do not show. Schedule codes are those of the source, read here as Q, the interval in days (D) or hours (H), X, the number of doses. Some entries were tested several times; the values are given in rising order. Where survival is the endpoint, the PubChem record calls one and a half times the control and up active, and a quarter to a half above the control has no call in these data; cut-offs in other NCI protocols can differ. Some T/C values carry the count of animals alive at the toxicity check (mostly the fifth day); where none is given, no animal had died by that day.

The assay deals with P388 leukemia ip, CD2F1 mice, survival T/C. Briefly: NCI In Vivo Anticancer Drug Screen. Data for tumor model P388 Leukemia (intraperitoneal) in CD2F1 (CDF1) mice. The settings on record: T/C endpoint: median survival time, higher T/C = longer survival.
Setting [1] is: dose: 100.0 mg/kg/injection, schedule: Q01DX005 (ip), vehicle: saline with Tween-80.
Where [2] appears, read: dose: 200.0 mg/kg/injection, schedule: Q01DX005 (ip), vehicle: saline with Tween-80.
Where [3] appears, read: dose: 100.0 mg/kg/injection, schedule: Q01DX005 (ip), vehicle: saline.
Where [4] appears, read: dose: 200.0 mg/kg/injection, schedule: Q01DX005 (ip), vehicle: saline.
[5] abbreviates: dose: 200.0 mg/kg/injection, schedule: Q01DX009 (ip), vehicle: Klucel (hydroxypropylcellulose) (HPC).
Setting [6] is: dose: 100.0 mg/kg/injection, schedule: Q01DX009 (ip), vehicle: saline.
Where [7] appears, read: dose: 200.0 mg/kg/injection, schedule: Q01DX009 (ip), vehicle: saline.
Setting [8] is: dose: 25.0 mg/kg/injection, schedule: Q01DX009 (ip), vehicle: saline with Tween-80.

Consider `CC(=O)OCC1OC([S-])C(OC(C)=O)C(OC(C)=O)C1OC(C)=O.CC[PH+](CC)CC.CC[PH+](CC)CC.[Au].[Au]` (configuration not stated), for which the T/C (dose: 2.5 mg/kg/injection, schedule: Q01DX009 (ip), vehicle: Klucel (hydroxypropylcellulose) (HPC)) is 136 % of control; the T/C (dose: 5.0 mg/kg/injection, schedule: Q01DX009 (ip), vehicle: Klucel (hydroxypropylcellulose) (HPC)) is 133 % of control [5 of 6 alive]; the T/C (dose: 10.0 mg/kg/injection, schedule: Q01DX009 (ip), vehicle: Klucel (hydroxypropylcellulose) (HPC)) was 142 % of control. Moreover, the survivor count (dose: 20.0 mg/kg/injection, schedule: Q01DX009 (ip), vehicle: Klucel (hydroxypropylcellulose) (HPC)) was 0 of 6.

`CCC1CN2C(=N1)c1ccccc1-c1cc(Cl)ccc12` (configuration not stated): the T/C (dose: 20.0 mg/kg/injection, schedule: Q01DX009 (ip), vehicle: saline) is 132 % of control and the T/C (dose: 40.0 mg/kg/injection, schedule: Q01DX009 (ip), vehicle: saline) is 148 % of control. For the same compound, the survivor count reads like this: (dose: 80.0 mg/kg/injection, schedule: Q01DX009 (ip), vehicle: saline) 0 of 6 and 2 of 6; (dose: 160.0 mg/kg/injection, schedule: Q01DX009 (ip), vehicle: saline) 0 of 6.

As to `O=C(O)CSC(=S)CCCCCCCCCCC(=S)SCC(=O)O`, the survivor count is, setting by setting: under setting [1], 3 of 6; under setting [2], 0 of 6.

With `O=NNc1cncc(Sc2ccccc2)n1`, the survivor count is, setting by setting: (dose: 100.0 mg/kg/injection, schedule: Q01DX008 (ip), vehicle: water) 6 of 6; (dose: 200.0 mg/kg/injection, schedule: Q01DX008 (ip), vehicle: water) 2 of 6.

Regarding `C[N+]1(C)CCC(C(=O)c2ccccc2)CC1`, the survivor count by setting is: (dose: 50.0 mg/kg/injection, schedule: Q01DX005 (ip), vehicle: saline) 0 of 6; under setting [3], 0 of 6; under setting [4], 0 of 6.

With `N#CCCN(CCCN1CCOCC1)CN1C(=O)c2ccccc2C1=O`, the survivor count under setting [5] was 1 of 6.

As to `C[N+]1(C[Si](C)(C)c2ccccc2)CCOCC1`, the survivor count is on record as 4 of 6 under setting [3] and 0 of 6 under setting [4].

`CC1CC(c2ccc(Cl)cc2)C(c2ccc(Cl)cc2)C(=O)O1` (configuration not stated): the survivor count by setting is: (dose: 50.0 mg/kg/injection, schedule: Q01DX009 (ip), vehicle: Klucel (hydroxypropylcellulose) (HPC)) 5 of 6; under setting [5], 2 of 6.

As for `S=c1[nH]c2cc(Cl)ccc2s1`, the survivor count runs as follows: (dose: 200.0 mg/kg/injection, schedule: Q01DX009 (ip), vehicle: saline with Tween-80) 6 of 6; (dose: 400.0 mg/kg/injection, schedule: Q01DX009 (ip), vehicle: saline with Tween-80) 2 of 6.

With `O=C1/C(=C/c2ccc(F)cc2)SC(=S)N1c1ccc(Cl)c(Cl)c1`, the survivor count under setting [6] is recorded as 5 of 6.

Regarding `C=C(CN1CCN(C)CC1)C(=O)c1ccccc1`, the survivor count by setting is: (dose: 15.0 mg/kg/injection, schedule: Q01DX005 (ip), vehicle: saline) 2 of 6; (dose: 30.0 mg/kg/injection, schedule: Q01DX005 (ip), vehicle: saline) 0 of 6.

As for `CC(=O)NCC(O)CNC(C)=O`, the survivor count is given as 6 of 6 (dose: 50.0 mg/kg/injection, schedule: Q01DX009 (ip), vehicle: saline); 6 of 6 under setting [6]; 6 of 6 under setting [7].

`CSc1ccc(/C=N/N=c2ccn(-c3ccc(Cl)cc3)cc2)cc1`: the survivor count was 3 of 6 (dose: 200.0 mg/kg/injection, schedule: Q01DX001 (ip), vehicle: Klucel (hydroxypropylcellulose) (HPC)) and 1 of 6 (dose: 400.0 mg/kg/injection, schedule: Q01DX001 (ip), vehicle: Klucel (hydroxypropylcellulose) (HPC)).

For `Cn1cnc([N+](=O)[O-])c1S(N)(=O)=O`, the T/C under setting [8] was 130 % of control and the T/C (dose: 50.0 mg/kg/injection, schedule: Q01DX009 (ip), vehicle: saline with Tween-80) is 130 % of control.

For the compound `COc1cc2c(cc1OC)-c1c(C)c3ccc(OC)c(NCCN)c3c[n+]1CC2`, the survivor count is 0 of 6 and 3 of 6 (dose: 50.0 mg/kg/injection, schedule: Q04DX003 (ip), vehicle: water); 0 of 6 (dose: 100.0 mg/kg/injection, schedule: Q04DX003 (ip), vehicle: water); 0 of 6 (dose: 200.0 mg/kg/injection, schedule: Q04DX003 (ip), vehicle: water); 0 of 6 (dose: 400.0 mg/kg/injection, schedule: Q04DX003 (ip), vehicle: water).

On to `N#CN(Cc1ccccc1)C(c1ccccc1)(c1ccccc1)c1ccccc1.[Br][Sn]([c]1ccccc1)([c]1ccccc1)[c]1ccccc1`, for which the survivor count runs as follows: (dose: 12.5 mg/kg/injection, schedule: Q01DX005 (ip), vehicle: saline with Tween-80) 5 of 6; (dose: 25.0 mg/kg/injection, schedule: Q01DX005 (ip), vehicle: saline with Tween-80) 3 of 6; (dose: 50.0 mg/kg/injection, schedule: Q01DX005 (ip), vehicle: saline with Tween-80) 3 of 6; under setting [1], 0 of 6; under setting [2], 0 of 6.

Turning to `CCn1c(=O)c2[nH]c(Br)nc2n(C2CC2)c1=O`, under setting [5], the survivor count was 3 of 6.

As for `O=[N+]([O-])c1cc([N+](=O)[O-])c(Cl)s1`, under setting [8], the survivor count is recorded as 4 of 6.

Consider `CCN(CC)CCC(O)c1ccc(Cl)c2ccccc12` (configuration not stated), for which the survivor count under setting [4] is on record as 0 of 5.

In the case of `C=CCN(CC=C)C(CC(=O)C(C)(C)C)=NCC`, the survivor count runs as follows: under setting [6], 0 of 6; under setting [7], 0 of 6.

Turning to `COc1cccc2c(NCCCCCCCCNc3c4ccccc4nc4c(OC)cccc34)c3ccccc3nc12`, the T/C (dose: 0.63 mg/kg/injection, schedule: Q01DX009 (ip), vehicle: other) is 136 % of control; the T/C (dose: 1.25 mg/kg/injection, schedule: Q01DX009 (ip), vehicle: other) was 144 % of control; the T/C (dose: 2.5 mg/kg/injection, schedule: Q01DX009 (ip), vehicle: other) was 145 % of control; the T/C (dose: 3.75 mg/kg/injection, schedule: Q01DX009 (ip), vehicle: other) is 149 % of control; the T/C (dose: 7.5 mg/kg/injection, schedule: Q01DX009 (ip), vehicle: other) is 149 % of control. Besides, the survivor count is 6 of 6 (dose: 10.0 mg/kg/injection, schedule: Q01DX009 (ip), vehicle: other); 6 of 6 (dose: 15.0 mg/kg/injection, schedule: Q01DX009 (ip), vehicle: other); 0 of 6 (dose: 20.0 mg/kg/injection, schedule: Q01DX009 (ip), vehicle: lactic acid); 4 of 6 (dose: 20.0 mg/kg/injection, schedule: Q01DX009 (ip), vehicle: other).

On to `COc1ccc(C(c2c(O)c3ccccc3oc2=O)N2CCOCC2)c(OC)c1` (configuration not stated), for which, where the note is “dose: 240.0 mg/kg/injection, schedule: Q01DX005 (ip), vehicle: saline with Tween-80”, the survivor count is on record as 0 of 6.

On to `CCN(CC)CCCNc1cc(C)nc2c1ccc1c2ccc2c(NCCCN(CC)CC)cc(C)nc21`, for which, where the note is “dose: 100.0 mg/kg/injection, schedule: Q01DX009 (ip), vehicle: water”, the survivor count is on record as 4 of 6.

For `COCc1cnc2nc(N)nc(N)c2n1`, the survivor count (dose: 6.25 mg/kg/injection, schedule: Q01DX009 (ip), vehicle: distilled water + Tween-80) is 4 of 6.

As to `c1cc(-c2cc3ccc(C4=NCCN4)cc3s2)ccc1C1=NCCN1`, the survivor count (dose: 100.0 mg/kg/injection, schedule: Q04DX003 (ip), vehicle: saline) is 0 of 6.

As for `NNS(=O)(=O)c1cccc([N+](=O)[O-])c1`, the survivor count is, setting by setting: (dose: 100.0 mg/kg/injection, schedule: Q01DX009 (ip), vehicle: other) 3 of 6; (dose: 200.0 mg/kg/injection, schedule: Q01DX009 (ip), vehicle: other) 0 of 6.

Consider `CC1(C)C(C)(C)C1(Br)Br`, for which the survivor count (dose: 50.0 mg/kg/injection, schedule: Q01DX009 (ip), vehicle: saline + alcohol) is reported as 6 of 6.
